According to patent publication US20210132041A1, “TARGET FOR DRUG TREATMENT OF TUMOR METASTASIS AND USE THEREOF” (PEKING UNIVERSITY, priority 2018, published 2021):
At least one structure is not confirmed: it was looked up by name or label, or the drawing left a doubt.

Experiments:
B16-F10 cells [1] = assay: Wound healing assay (migration); assay type: cell-based, mouse; conditions: FIG. 3, 24 hours, 0.1% FBS
[2] = test system: spontaneously arising breast tumors; assay: Lung metastasis of spontaneous breast tumors in MMTV-PyMT mice; assay type: in vivo, mouse; conditions: FIG. 13, 1 mg/kg every other day from 12th week, week 15
B16-F10 cells [3] = assay: Matrigel transwell invasion assay; assay type: cell-based, mouse; conditions: FIG. 4
MMP2 = assay: Western Blot of protein level in B16-F10 cell line; assay type: cell-based, mouse; conditions: FIG. 18
MDA-MB-231 = assay: Lung colonization of luciferase-expressing MDA-MB-231 in SCID-Beige mice, bioluminescence imaging; assay type: in vivo, human; conditions: FIG. 11, 2 mg/kg/d intraperitoneal, first five days
B16-F10 cells [4] = assay: Lung metastasis after tail vein injection of B16-F10 cells in C57BL/6 mice; assay type: in vivo, mouse; conditions: FIG. 6, 2 mg/kg/d intraperitoneal, day 15
A375 [5] = assay: Lung colonization of A375 after tail vein injection in SCID-Beige mice; assay type: in vivo, human; conditions: FIG. 9
MDA-MB-231 cells = assay: Invasion assay, MDA-MB-231; assay type: cell-based, human; conditions: FIG. 10
HIF-1α = assay: Western Blot of protein level in B16-F10 cell line; assay type: cell-based, mouse; conditions: FIG. 18
A375 [6] = assay: Matrigel transwell invasion assay, A375; assay type: cell-based, human; conditions: FIG. 8
[7] = test system: mTOR pathway-related molecules; assay: Western Blot of protein phosphorylation level; assay type: cell-based; conditions: FIG. 20

O=C1NCc2cc(-c3cnc(Nc4ccc(N5CCOCC5)cc4)c4nccn34)ccc21 [PRAK inhibitor-23, 5-(8-((4-morpholinylphenyl)amino)imidazo [1,2-a]pyrazin-5-yl) isoindol-1-one]
inhibition of the migration of B16-F10 cells (B16-F10 cells [1]): significantly inhibit
inhibition of lung metastasis of spontaneously arising breast tumors [2]: significantly inhibited
inhibition of the invasion of B16-F10 cells (B16-F10 cells [3]): significantly inhibit
expression level of MMP2 (MMP2): significantly reduce
inhibition of the ability of MDA-MB-231 to colonize in the lung (MDA-MB-231): significantly inhibit
inhibition of the ability of intravenously injected B16-F10 cells to colonize in the lung (B16-F10 cells [4]): significantly inhibit
inhibition of the ability of A375 to colonize in lung (A375 [5]): significantly inhibit
inhibition of the invasion ability of MDA-MB-231 cells (MDA-MB-231 cells): significantly inhibit
expression level of HIF-1α (HIF-1α): significantly reduce
inhibition of the invasion ability of A375 (A375 [6]): significantly inhibit
phosphorylation level of mTOR pathway-related molecules [7]: reduced
